These results are taken from article PMC7618200 (The Biochemical journal, 2025).

By UniProt entry, the sequences of proteins in these tests, tags left out. Where a name states a change or a piece, a line headed by the entry shows the natural chain unless it says otherwise.
UniProt Q9BQF6: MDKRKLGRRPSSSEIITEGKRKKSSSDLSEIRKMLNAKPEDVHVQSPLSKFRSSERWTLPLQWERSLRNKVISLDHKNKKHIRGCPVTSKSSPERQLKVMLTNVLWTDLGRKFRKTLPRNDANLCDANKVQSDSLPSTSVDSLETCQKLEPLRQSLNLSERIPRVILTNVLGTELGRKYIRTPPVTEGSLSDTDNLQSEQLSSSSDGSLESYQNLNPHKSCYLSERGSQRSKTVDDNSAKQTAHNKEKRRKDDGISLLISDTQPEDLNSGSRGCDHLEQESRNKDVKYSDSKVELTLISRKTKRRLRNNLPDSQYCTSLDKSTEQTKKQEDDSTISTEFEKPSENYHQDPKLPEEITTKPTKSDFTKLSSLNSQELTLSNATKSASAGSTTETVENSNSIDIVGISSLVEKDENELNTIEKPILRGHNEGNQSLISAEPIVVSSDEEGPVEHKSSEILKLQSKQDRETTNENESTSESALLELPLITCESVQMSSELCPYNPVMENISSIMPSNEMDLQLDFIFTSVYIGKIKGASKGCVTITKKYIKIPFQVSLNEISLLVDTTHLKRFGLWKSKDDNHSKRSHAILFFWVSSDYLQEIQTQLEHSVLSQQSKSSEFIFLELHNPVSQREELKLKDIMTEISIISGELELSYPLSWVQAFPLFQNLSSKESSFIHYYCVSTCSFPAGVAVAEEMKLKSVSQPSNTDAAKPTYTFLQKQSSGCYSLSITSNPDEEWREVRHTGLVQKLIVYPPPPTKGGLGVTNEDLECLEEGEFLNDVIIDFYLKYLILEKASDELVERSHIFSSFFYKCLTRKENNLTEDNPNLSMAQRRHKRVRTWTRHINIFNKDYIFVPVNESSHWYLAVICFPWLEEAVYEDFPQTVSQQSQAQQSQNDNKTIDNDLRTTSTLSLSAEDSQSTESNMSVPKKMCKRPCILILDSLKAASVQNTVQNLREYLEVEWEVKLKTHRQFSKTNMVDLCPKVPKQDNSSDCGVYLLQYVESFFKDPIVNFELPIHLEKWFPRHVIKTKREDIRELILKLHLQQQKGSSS
UniProt O43791: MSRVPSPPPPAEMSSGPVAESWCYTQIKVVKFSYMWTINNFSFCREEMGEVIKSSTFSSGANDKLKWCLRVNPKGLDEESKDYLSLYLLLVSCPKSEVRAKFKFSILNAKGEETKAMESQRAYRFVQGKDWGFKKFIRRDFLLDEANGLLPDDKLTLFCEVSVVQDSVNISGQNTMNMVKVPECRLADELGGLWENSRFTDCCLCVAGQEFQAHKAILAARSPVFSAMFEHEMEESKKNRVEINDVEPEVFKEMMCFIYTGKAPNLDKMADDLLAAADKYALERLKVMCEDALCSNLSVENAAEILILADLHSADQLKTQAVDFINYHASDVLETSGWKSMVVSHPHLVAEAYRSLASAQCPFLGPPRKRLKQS

The target in this test is FLAG-tagged SENP7 with the Q-motif mutated (human) (UniProt Q9BQF6). Description: co-IP; anti-FLAG M2 agarose IP from NP-40 lysates of HEK293T cells overexpressing 2× FLAG-tagged protein; cells treated with 5 μM MLN4924 for 6 hours; immunoblot.

Results are given in words; binding and its absence hold for the method and conditions named. Binding seen in cells or lysates may run through a third protein.

As to “endogenous SPOP (speckle-type BTB/POZ protein) (from UniProt O43791 1-374)”, the binding entry was “no binding”.
